PubChem BioAssay AID1224830, NIAID | 2016
Purpose: 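Host factors that control LPS-induced TNF expression in human macrophages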 (primary screen). Cells: human THP-1 monocytic leukaemia cells, TNF dual-luciferase reporter clone, PMA-differentiated to macrophage-like cells. Reagent: siRNA pool against human genes, 50 nM. Time to read-out: LPS for 4 h, given about 3 days after siRNA transfection. Treatment: bacterial LPS (TLR4 ligand), 10 ng/ml. Measured: 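TNF firefly reporter luminescence divided by renilla, normalised to the plate median, then turned into a robust z-score for each replicate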. Reading the numbers: TNF reporter robust z-score: higher = stronger TNF reporter response to LPS. Rule for the call: 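a well is active when its z-score exceeds 2.8 or falls below -1.5; control wells carry no call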.
This is an unselected part of about 18,000 deposited reagents. Over the whole deposit, about 2,900 (16%) got an active call. 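Calls are made per well; low scores hint the gene aids the LPS response, high scores that it dampens it.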 Repeated entries: four replicate wells of each siRNA pool.

Which result is listed for CACHD1?
TNF reporter robust z-score: -0.09; Call: inactive

With CACHD1, how do the results read?
TNF reporter robust z-score: 0.32; Call: inactive

Which result is listed for CACHD1?
TNF reporter robust z-score: 0.13; Call: inactive

For CACHD1, what was measured?
TNF reporter robust z-score: 0.24; Call: inactive

With PRMT1, how do the results read?
TNF reporter robust z-score: 0.14; Call: inactive

With PRMT1, what was measured?
TNF reporter robust z-score: -0.22; Call: inactive

For PRMT1, what was measured?
TNF reporter robust z-score: 1.72; Call: inactive

How did the screen score PRMT1?
TNF reporter robust z-score: 0.03; Call: inactive

Which result is listed for EPG5?
TNF reporter robust z-score: -0.17; Call: inactive

How did the screen score EPG5?
TNF reporter robust z-score: 0.87; Call: inactive

What is on record for EPG5?
TNF reporter robust z-score: 0.32; Call: inactive

With PDF, how do the results read?
TNF reporter robust z-score: 1.06; Call: inactive

With PDF, what was measured?
TNF reporter robust z-score: 1.38; Call: inactive

With PDF, what does the deposit list?
TNF reporter robust z-score: 2.33; Call: inactive

How did the screen score PDF?
TNF reporter robust z-score: 3.13; Call: active

For PROM1, what does the deposit list?
TNF reporter robust z-score: 0.65; Call: inactive

How did the screen score PROM1?
TNF reporter robust z-score: 3.24; Call: active

With PROM1, what does the deposit list?
TNF reporter robust z-score: 1.9; Call: inactive

How did the screen score PROM1?
TNF reporter robust z-score: 1.31; Call: inactive

Part of the list above, reformatted:
{"gene knocked down": "EPG5", "TNF reporter robust z-score": 0.87, "Call": "inactive"}
{"gene knocked down": "EPG5", "TNF reporter robust z-score": 0.32, "Call": "inactive"}
{"gene knocked down": "PDF", "TNF reporter robust z-score": 1.06, "Call": "inactive"}
{"gene knocked down": "PDF", "TNF reporter robust z-score": 1.38, "Call": "inactive"}

The results go on.
For AGBL1, how do the results read?
TNF reporter robust z-score: -1.39; Call: inactive

With AGBL1, what does the deposit list?
TNF reporter robust z-score: -1.66; Call: active

For AGBL1, what was measured?
TNF reporter robust z-score: -1.28; Call: inactive

What did the screen give for AGBL1?
TNF reporter robust z-score: -0.85; Call: inactive

With CFAP157, how do the results read?
TNF reporter robust z-score: -0.08; Call: inactive

Which result is listed for CFAP157?
TNF reporter robust z-score: -0.63; Call: inactive

How did the screen score CFAP157?
TNF reporter robust z-score: -0.66; Call: inactive

What is on record for CFAP157?
TNF reporter robust z-score: -0.32; Call: inactive

With S100A13, what does the deposit list?
TNF reporter robust z-score: 0.27; Call: inactive

With S100A13, what was measured?
TNF reporter robust z-score: 1.02; Call: inactive

Which result is listed for S100A13?
TNF reporter robust z-score: 0.07; Call: inactive

For S100A13, how do the results read?
TNF reporter robust z-score: 0.7; Call: inactive

Which result is listed for ZNF16?
TNF reporter robust z-score: -1.25; Call: inactive

For ZNF16, what was measured?
TNF reporter robust z-score: -0.76; Call: inactive

With ZNF16, what was measured?
TNF reporter robust z-score: -1.41; Call: inactive

Which result is listed for ZNF16?
TNF reporter robust z-score: -0.72; Call: inactive
